Results reported in the supplement of paper PMC10849652.
Some of the results follow.

Chains of the proteins cited; added tags and fusions are not shown. Lines headed by an entry give the natural chain unless they say otherwise; changes in a name come on top.
UniProt P24752: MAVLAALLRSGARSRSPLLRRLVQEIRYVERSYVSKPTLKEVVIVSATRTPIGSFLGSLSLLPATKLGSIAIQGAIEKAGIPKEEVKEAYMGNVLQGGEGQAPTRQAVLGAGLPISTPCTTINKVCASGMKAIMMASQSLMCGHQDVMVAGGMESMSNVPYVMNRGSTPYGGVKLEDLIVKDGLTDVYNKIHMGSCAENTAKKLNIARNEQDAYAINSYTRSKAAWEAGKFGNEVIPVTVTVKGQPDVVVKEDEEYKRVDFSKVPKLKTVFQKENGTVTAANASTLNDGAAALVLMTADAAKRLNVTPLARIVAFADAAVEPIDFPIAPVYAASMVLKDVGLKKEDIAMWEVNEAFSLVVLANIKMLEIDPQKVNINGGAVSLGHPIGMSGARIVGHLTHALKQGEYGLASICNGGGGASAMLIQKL
UniProt P16219: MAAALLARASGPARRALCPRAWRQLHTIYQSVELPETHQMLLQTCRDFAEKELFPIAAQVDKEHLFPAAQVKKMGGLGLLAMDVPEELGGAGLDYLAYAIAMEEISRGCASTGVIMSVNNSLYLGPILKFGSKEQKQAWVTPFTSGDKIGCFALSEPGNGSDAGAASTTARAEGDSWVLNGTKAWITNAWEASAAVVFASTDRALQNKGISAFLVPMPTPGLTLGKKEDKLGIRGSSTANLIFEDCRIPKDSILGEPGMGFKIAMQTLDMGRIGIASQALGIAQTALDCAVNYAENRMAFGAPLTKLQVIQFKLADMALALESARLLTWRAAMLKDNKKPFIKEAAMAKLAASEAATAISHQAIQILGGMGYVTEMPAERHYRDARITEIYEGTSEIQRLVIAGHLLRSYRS
UniProt O14672: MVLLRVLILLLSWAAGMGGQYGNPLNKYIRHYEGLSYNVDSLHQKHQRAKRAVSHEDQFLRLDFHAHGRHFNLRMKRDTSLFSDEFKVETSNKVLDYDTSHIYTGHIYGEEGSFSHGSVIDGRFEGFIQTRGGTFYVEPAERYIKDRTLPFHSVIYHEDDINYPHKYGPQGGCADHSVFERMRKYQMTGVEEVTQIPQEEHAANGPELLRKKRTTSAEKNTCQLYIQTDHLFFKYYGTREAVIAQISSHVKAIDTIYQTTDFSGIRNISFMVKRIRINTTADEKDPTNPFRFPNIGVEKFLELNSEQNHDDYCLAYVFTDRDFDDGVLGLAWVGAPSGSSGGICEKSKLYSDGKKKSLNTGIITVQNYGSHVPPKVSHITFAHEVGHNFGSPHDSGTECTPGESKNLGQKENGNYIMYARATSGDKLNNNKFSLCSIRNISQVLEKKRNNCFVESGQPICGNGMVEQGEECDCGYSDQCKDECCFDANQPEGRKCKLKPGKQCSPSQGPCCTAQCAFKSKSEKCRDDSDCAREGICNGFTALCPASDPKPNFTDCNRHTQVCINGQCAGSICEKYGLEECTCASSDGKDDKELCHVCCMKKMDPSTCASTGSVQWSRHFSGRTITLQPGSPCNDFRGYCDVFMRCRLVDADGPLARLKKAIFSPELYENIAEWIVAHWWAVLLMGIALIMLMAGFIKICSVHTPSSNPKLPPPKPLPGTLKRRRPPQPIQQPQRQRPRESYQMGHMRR
UniProt O14639: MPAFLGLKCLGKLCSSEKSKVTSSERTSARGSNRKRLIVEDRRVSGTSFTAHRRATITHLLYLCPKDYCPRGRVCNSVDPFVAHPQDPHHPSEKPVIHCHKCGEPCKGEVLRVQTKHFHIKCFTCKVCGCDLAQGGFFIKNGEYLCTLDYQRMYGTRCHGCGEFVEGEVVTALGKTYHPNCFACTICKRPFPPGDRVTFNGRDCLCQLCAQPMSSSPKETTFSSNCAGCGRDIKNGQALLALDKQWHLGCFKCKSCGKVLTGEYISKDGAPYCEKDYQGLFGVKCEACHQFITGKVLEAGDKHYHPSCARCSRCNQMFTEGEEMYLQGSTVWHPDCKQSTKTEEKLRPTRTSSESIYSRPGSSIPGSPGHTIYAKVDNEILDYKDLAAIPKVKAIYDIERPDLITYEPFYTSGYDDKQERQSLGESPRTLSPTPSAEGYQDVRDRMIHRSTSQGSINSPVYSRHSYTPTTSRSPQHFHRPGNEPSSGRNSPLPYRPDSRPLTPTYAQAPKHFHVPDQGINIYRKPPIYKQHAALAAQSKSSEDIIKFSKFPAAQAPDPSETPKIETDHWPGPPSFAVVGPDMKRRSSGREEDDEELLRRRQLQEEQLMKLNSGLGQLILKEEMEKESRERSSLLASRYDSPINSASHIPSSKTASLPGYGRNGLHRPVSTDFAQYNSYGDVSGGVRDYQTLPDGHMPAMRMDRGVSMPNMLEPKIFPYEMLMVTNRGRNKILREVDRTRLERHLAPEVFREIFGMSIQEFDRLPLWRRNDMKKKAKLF
UniProt Q9NUQ8: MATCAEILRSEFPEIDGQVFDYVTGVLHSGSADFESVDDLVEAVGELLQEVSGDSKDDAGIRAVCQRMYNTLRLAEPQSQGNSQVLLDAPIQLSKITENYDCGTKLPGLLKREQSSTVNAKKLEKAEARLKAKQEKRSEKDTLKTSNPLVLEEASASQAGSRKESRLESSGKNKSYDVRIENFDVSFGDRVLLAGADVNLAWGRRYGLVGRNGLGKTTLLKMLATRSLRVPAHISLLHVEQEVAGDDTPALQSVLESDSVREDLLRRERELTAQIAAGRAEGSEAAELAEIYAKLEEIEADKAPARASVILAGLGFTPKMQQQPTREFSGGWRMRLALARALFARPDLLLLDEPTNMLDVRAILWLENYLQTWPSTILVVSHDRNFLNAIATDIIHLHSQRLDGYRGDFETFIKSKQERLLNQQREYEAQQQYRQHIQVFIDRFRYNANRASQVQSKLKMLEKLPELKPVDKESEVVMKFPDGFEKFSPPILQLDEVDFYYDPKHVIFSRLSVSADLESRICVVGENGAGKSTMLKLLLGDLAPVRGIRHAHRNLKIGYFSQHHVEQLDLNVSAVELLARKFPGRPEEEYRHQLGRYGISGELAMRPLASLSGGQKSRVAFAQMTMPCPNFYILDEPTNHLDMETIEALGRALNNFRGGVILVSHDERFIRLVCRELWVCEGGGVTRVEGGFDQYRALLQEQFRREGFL
UniProt P01023, whole entry, looked up: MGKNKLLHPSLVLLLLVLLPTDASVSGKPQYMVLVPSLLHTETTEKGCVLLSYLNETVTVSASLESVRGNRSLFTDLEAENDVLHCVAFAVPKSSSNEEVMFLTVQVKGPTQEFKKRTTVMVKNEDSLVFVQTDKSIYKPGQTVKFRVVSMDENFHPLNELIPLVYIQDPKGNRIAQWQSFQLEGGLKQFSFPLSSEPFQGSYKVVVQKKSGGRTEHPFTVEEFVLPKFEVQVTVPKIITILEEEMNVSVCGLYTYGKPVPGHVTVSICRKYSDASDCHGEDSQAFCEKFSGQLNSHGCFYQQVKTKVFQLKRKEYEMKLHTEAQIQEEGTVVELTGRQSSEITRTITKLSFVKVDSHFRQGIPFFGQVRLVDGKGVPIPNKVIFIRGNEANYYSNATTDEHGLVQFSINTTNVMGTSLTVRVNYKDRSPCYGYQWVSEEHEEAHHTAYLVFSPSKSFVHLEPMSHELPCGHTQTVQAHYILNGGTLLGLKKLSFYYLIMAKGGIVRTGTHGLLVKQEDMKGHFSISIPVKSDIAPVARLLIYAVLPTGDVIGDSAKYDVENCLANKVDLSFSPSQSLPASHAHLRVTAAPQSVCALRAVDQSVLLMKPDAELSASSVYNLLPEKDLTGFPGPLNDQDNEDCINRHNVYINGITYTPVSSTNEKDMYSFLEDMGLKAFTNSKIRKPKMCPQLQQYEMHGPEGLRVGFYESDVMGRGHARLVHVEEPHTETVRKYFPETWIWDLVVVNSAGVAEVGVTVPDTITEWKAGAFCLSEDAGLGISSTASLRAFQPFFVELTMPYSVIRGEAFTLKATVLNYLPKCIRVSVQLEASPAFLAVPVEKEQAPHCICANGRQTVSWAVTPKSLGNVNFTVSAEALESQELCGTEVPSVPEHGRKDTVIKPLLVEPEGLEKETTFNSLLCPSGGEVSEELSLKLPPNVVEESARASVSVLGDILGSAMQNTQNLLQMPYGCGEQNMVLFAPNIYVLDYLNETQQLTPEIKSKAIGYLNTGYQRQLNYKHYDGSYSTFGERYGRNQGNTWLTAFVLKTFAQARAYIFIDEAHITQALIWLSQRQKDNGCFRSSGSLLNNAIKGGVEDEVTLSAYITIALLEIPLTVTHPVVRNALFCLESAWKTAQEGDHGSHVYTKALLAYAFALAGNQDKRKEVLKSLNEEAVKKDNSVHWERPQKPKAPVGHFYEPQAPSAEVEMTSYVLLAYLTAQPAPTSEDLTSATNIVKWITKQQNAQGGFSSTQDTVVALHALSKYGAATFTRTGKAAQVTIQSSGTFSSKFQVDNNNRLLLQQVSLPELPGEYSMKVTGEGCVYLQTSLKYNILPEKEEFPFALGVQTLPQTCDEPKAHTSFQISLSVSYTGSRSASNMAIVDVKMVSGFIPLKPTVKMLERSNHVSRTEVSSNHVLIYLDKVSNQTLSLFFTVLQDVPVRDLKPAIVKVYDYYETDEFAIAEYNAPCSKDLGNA
UniProt O14734: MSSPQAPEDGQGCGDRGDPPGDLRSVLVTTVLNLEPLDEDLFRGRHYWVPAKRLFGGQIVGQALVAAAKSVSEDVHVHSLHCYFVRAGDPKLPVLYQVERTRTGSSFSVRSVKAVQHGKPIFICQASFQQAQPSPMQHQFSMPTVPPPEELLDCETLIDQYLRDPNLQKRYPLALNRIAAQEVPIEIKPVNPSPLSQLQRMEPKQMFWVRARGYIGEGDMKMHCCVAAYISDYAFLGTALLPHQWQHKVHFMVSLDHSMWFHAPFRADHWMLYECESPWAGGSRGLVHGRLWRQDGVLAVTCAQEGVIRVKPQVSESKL
UniProt Q9UKU7: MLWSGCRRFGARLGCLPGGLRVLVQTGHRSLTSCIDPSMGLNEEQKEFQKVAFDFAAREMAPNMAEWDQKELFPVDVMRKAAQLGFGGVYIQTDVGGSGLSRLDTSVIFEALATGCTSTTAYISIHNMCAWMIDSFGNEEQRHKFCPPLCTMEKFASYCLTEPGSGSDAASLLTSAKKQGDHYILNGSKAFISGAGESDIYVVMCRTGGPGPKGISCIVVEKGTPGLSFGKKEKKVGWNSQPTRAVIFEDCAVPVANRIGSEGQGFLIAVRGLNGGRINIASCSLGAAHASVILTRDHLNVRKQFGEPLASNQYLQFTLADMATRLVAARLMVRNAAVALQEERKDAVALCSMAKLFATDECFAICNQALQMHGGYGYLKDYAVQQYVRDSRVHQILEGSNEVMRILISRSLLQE
UniProt P21399: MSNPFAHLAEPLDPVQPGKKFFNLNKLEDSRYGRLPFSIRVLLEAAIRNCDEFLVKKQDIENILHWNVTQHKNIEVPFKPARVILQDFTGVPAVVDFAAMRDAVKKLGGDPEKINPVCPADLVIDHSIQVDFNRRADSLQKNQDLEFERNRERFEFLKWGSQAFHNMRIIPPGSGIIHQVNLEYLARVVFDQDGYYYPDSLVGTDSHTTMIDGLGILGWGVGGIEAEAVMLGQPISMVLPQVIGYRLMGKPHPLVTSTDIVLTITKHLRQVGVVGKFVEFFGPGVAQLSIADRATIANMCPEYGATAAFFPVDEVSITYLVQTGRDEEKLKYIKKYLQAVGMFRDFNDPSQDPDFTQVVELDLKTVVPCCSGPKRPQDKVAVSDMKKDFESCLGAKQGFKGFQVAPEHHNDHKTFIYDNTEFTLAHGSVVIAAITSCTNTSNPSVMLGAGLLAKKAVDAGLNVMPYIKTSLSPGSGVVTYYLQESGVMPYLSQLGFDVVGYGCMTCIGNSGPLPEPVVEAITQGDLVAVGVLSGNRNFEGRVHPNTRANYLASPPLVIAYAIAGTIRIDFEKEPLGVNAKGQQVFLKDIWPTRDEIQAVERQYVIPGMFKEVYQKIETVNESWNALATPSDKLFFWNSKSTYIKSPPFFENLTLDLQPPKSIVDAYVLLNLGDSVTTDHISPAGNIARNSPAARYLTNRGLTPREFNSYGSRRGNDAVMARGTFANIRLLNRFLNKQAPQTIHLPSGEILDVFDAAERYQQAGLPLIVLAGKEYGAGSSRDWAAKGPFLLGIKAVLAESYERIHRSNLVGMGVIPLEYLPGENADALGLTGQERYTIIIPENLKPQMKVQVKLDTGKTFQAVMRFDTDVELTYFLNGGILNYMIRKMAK
UniProt P09110: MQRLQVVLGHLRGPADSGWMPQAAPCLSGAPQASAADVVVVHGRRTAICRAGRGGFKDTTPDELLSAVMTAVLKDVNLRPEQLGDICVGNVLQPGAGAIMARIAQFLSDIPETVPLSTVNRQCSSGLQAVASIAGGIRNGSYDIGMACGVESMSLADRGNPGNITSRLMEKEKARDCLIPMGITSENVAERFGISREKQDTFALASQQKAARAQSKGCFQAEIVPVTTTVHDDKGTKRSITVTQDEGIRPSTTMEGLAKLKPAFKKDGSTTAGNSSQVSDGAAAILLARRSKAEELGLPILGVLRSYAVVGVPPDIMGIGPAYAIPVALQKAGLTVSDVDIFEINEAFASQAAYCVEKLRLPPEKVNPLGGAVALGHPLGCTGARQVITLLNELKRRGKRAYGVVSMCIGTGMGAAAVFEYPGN

Compound: Cc1cc(Nc2cc(CN3CCOCC3)c3nc(C)c(Cc4ccc(Cl)cc4F)n3n2)n[nH]1 [gandotinib]
Assay: log2 fold change, soluble protein after heating vs DMSO (PISA); higher = thermal stabilisation; K562 cells, 10 uM, 30 min; active = over 0.2 and 3.5 SD of the protein, either way, in both replicates (recomputed)
Method in brief: (§1)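 For each measurement, 10 μM compound was applied for 30 min to K562 cells at 2×10^6 cells/mL. Aliquots were heated for 3 min across 48°C-58°C, pooled, and extracted in PBS with 0.5% NP-40 at 4°C; the supernatant after 21,000xg for 90 min was soluble protein. This was quantified by TMTpro 16plex LC-MS/MS with channel sums equalised, and thermal stability was reported relative to control samples from duplicates, on a log2 fold-change scale.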

log2 fold change, inactive:
ACACA isoform 4 (UniProt Q13085) -0.002
ACSS2 isoform 2 (UniProt Q9NR19) -0.079
ACOX1 isoform 2 (UniProt Q15067) 0.044
ACAT1 (UniProt P24752) -0.046
ACTR2 (UniProt P61160) 0.078
ACADS (UniProt P16219) 0.042
ADAM10 (UniProt O14672) -0.009
ABHD12 isoform 2 (UniProt Q8N2K0) -0.033
ADAR isoform 4 (UniProt P55265) 0.03
ACTR10 (UniProt Q9NZ32) -0.029
ABLIM1 (UniProt O14639) -0.17
ABCF3 (UniProt Q9NUQ8) 0.046
ABRAXAS2 (UniProt Q15018) 0.033
ACTA1 (UniProt P68133) -0.013
ADAM17 (UniProt P78536) -0.06
A2M (UniProt P01023) -0.016
ACADSB (UniProt P45954) 0.048
ACOT8 (UniProt O14734) -0.032
ABCC4 (UniProt O15439) 0.022
ACAD8 (UniProt Q9UKU7) 0.022
ACY1 (UniProt Q03154) 0.034
AASDHPPT (UniProt Q9NRN7) -0.05
ACTL6A (UniProt O96019) -0.012
ABCB7 isoform 2 (UniProt O75027) -0.109
ADAL (UniProt Q6DHV7) 0.05
ACTR6 (UniProt Q9GZN1) -0.056
ACO1 (UniProt P21399) 0.007
ACTR3 (UniProt P61158) -0.026
ABCD3 (UniProt P28288) -0.043
ACAA1 (UniProt P09110) -0.023
ABCE1 (UniProt P61221) -0.007
ADAT2 (UniProt Q7Z6V5) -0.031
ABCF1 (UniProt Q8NE71) 0.056
ACTN4 (UniProt O43707) -0.024
AARS (UniProt P49588) -0.042
ACTL8 (UniProt Q9H568) -0.012

Compound: Cc1cc(Nc2cc(N3CCN(C)CC3)nc(Sc3ccc(NC(=O)C4CC4)cc3)n2)n[nH]1 [tozasertib]
Assay: as above
Method in brief: as §1

log2 fold change, inactive:
ACACA isoform 4 (UniProt Q13085) 0.059
ACSS2 isoform 2 (UniProt Q9NR19) 0.012
ACOX1 isoform 2 (UniProt Q15067) 0.023
ACAT1 (UniProt P24752) -0.032
ACTR2 (UniProt P61160) 0.022
ACADS (UniProt P16219) -0.022
ADAM10 (UniProt O14672) 0.006
ABHD12 isoform 2 (UniProt Q8N2K0) 0.018
ADAR isoform 4 (UniProt P55265) 0.196
ACTR10 (UniProt Q9NZ32) 0.001
ABLIM1 (UniProt O14639) -0.028
ABCF3 (UniProt Q9NUQ8) -0.035
ABRAXAS2 (UniProt Q15018) -0.024
ACTA1 (UniProt P68133) -0.003
ADAM17 (UniProt P78536) -0.014
A2M (UniProt P01023) -0.015
ACADSB (UniProt P45954) -0.128
ACOT8 (UniProt O14734) -0.005
ABCC4 (UniProt O15439) -0.074
ACAD8 (UniProt Q9UKU7) -0.016
ACY1 (UniProt Q03154) -0.032
AASDHPPT (UniProt Q9NRN7) 0.046
ACTL6A (UniProt O96019) 0.002
ABCB7 isoform 2 (UniProt O75027) -0.017
ADAL (UniProt Q6DHV7) -0.047
ACTR6 (UniProt Q9GZN1) 0.012
ACO1 (UniProt P21399) 0.013
ACTR3 (UniProt P61158) 0.029
ABCD3 (UniProt P28288) -0.008
ACAA1 (UniProt P09110) -0.021
ABCE1 (UniProt P61221) -0.021
ADAT2 (UniProt Q7Z6V5) -0.038
ABCF1 (UniProt Q8NE71) -0.05
ACTN4 (UniProt O43707) 0.02
AARS (UniProt P49588) -0.003
ACTL8 (UniProt Q9H568) -0.022
